In all, about 33,000 sequences were measured (“E-score (-0.5 to 0.5)”: median about -0.015, highest 2% from about 0.3 on). This is one part of the list.
What follows are sequences tested against T1, Abf1 (UniProt P14164) (assay: PBM E-score (8-mer binding enrichment) (E-score (-0.5 to 0.5)); higher = stronger / more preferred TF binding). Details: protein concentration: 200 nM; construct: GST-full length.
T1 sequence: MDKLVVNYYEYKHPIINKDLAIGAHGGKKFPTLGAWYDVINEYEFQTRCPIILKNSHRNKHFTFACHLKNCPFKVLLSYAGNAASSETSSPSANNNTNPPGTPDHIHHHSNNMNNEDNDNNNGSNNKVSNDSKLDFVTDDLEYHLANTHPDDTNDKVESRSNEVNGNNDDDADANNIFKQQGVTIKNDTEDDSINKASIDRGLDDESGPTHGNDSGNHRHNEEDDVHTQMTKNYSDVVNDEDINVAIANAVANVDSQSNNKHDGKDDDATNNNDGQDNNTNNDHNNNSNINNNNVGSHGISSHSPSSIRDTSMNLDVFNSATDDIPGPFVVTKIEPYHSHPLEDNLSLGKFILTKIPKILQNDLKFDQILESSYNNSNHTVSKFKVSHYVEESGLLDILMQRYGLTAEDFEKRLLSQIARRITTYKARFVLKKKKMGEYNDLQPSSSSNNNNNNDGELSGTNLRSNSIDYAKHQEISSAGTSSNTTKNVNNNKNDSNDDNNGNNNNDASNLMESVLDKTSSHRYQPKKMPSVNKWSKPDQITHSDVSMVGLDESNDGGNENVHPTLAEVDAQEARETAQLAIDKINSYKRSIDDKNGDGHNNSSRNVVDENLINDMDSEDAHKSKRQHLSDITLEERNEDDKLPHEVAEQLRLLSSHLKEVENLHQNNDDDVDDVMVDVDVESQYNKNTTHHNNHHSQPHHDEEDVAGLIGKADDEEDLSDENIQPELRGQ
Outline: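 For each ungapped eight-base word taken together with its reverse complement, the Universal PBM Analysis Suite assigned an E-score. Binding data came from GST-tagged yeast transcription factors, applied at about 100-200 nM, on universal all-10-mer Agilent arrays made double-stranded by primer extension. Fluorescent anti-GST marked bound protein, and scans were normalised with masliner.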

Sequence	PBM E-score
ATTGCCCG	-0.0211
CCCTCACC	-0.153
CGCAAATA	-0.0387
GATTTCAC	0.104
GCCGCCAA	-0.0421
GGGCGTCA	-0.168
ACGAAATC	0.291
AGTCGAAC	0.0892
AGCGATCG	0.154
CAATCGCC	-0.187
ATCAGCAC	0.102
AATTCAAT	0.116
GAACATGC	0.0748
CAACACAA	0.0724
ATAACATG	0.153
AGCGCTGC	-0.0448
ACCCAATA	0.0153
CCGACGCA	-0.271
AACCGGAA	-0.0581
TGGGGTAA	0.043
AATGGGCT	0.0643
GCGCGGCC	-0.205
CATGCGCA	0.0599
ACGCCCTG	-0.103
GCTTTAAA	-0.0185

Sequence	PBM E-score
CCGCGTCG	0.106
AAGAGGGG	-0.225
ATACATAT	0.285
AATGTAAG	0.153
ACGCAGGA	-0.0522
GATAATAC	0.198
AATAAACG	0.0929
AGATATTC	0.0375
ACATCTTG	-0.142
AGCCTCTA	-0.306
CCCACCCC	-0.0982
CAGAGTGC	-0.0102
AACAGGGA	-0.108
CGAATGCA	0.231
AGGAGCAC	-0.0536
CATGTGTA	-0.0484
AGGCCAAG	-0.328
AACCCTAC	-0.301
ATTATACG	0.331
ATGGACCC	0.0136
ACTTGCTG	-0.0416
ACGGCCTC	0.0938
GTTTACAA	0.101
TCCGCCAA	-0.078
CTCATTAC	0.148

Sequence	PBM E-score
GGCATGCA	-0.00804
GGCTCGTA	0.162
CTACCCTA	-0.311
TCCTCTAA	0.0384
TAGGGTGA	0.18
CCAGACAA	-0.304
TACTACGA	0.241
TAACCCGA	0.0021
GACTGCAC	-0.0655
GGTCACAC	-0.152
ACGACTTA	-0.0279
CCGAGTAA	0.0634
CTGAAGAC	-0.146
CAGCACCG	-0.0675
CGGAGATA	0.062
AGTCCAGA	-0.165
AGGAGCTA	-0.223
ATCCCGTA	0.215
AAGGGATC	-0.0505
ATCGGGAC	-0.145
CGTCTCCA	0.0242
ACAAATAC	0.142
ACAGTAGA	0.0269
AGGGTACG	0.0726
ATCCTAGA	0.0959

Sequence	PBM E-score
ACGTCCCC	-0.0168
AGTGTGAC	0.0994
GGCGCGGA	-0.219
ATAGTCGG	0.0162
CAGTAGGG	-0.225
CCGGACTC	0.00428
AGCTGATG	-0.0224
CCGAAGCC	-0.143
CAGTGCGA	-0.0265
CAGGCTTC	-0.0854
AATTAGTC	0.0846
AATCCCCT	-0.129
GCCCAACA	-0.0999
CAGTACAG	-0.0549
AAAGGATA	0.183
AGCGGTAC	-0.161
ATTGAGAG	-0.0221
ACTGGTCA	0.0755
GATTATAA	0.156
GTCTCAAC	0.0243
AGTCCGAT	-0.0313
AATCACAA	-0.118
AAGGGCAT	-0.231
AATGGAAA	0.0415
CCGGGGAA	-0.232

6 entries picked at random from those above:
Sequence	PBM E-score
GTCTCAAC	0.0243
ACGTCCCC	-0.0168
ACTGGTCA	0.0755
AAAGGATA	0.183
AGCTGATG	-0.0224
AGTCCGAT	-0.0313

More entries follow:

Sequence	PBM E-score
CGCGAGCC	-0.115
CGGCTCAC	0.0627
GCCGGTCC	-0.369
GCAGAGAA	0.118
ACGCGACA	0.25
GCACTTTA	0.0218
ATCTCGGG	-0.0633
GCAGACCA	-0.179
ACTCCTGC	-0.173
AAGCAGAG	-0.023
ATCGATAG	0.098
GTTTACCA	0.0318
CATCTTAG	-0.151
AGCGTCCC	-0.257
ATGCCAAT	0.0319
GAATAAAC	-0.0354
GTAGGGGA	-0.157
ATCACCTC	0.257
GCGTGGTA	-0.131
ACGAGGAA	0.199
ACGCGACT	-0.0799
CAATACGG	0.228
CCGTCGCA	0.282
ATTGGAGG	-0.104
ACTAGCTC	0.00329

Part of the list above, comma-delimited.
Sequence,PBM E-score
AGGGTACG,0.0726
ATCCTAGA,0.0959
ACGTCCCC,-0.0168
AGTGTGAC,0.0994

(continued)

Sequence	PBM E-score
GCGCGTCA	0.0209
CCGTCTCA	-0.064
AATTTATA	0.191
CATGAAGG	-0.125
AGCAAGTG	-0.0415
CATTCGGG	-0.01
CTTGTTAC	0.0567
ATGGTTAA	0.0116
GCATCCAA	-0.245
CGACTACC	-0.146
ATGCGACC	0.109
AAGGCCTT	-0.186
CGGTCACA	-0.103
AATAGTGT	0.129
ACAAAACG	0.099
GAGGTAGC	-0.181
GACTAACA	0.144
CCTCTGTA	-0.0117
AGCAGACC	-0.0678
AAGTCGTG	-0.0223
ACCGGTCC	-0.256
CCAGCAAG	-0.0738
GCCAACAA	-0.216
GGAGGGGA	-0.23
TGCGGTAA	0.0631

Sequence	PBM E-score
CCTATGCC	-0.26
CACGGCCA	-0.0177
CTGGAGGA	-0.202
CTTGAATC	0.0688
CCGACGAG	0.251
CGGGGCAG	-0.12
TCATAGCA	0.092
GAGAACTA	-0.0636
CACCCAAG	-0.121
CAAGATCC	0.074
CGTGCTGA	0.0774
AGCCTTAC	-0.287
TACCCCCA	-0.18
CCGAGGGC	-0.00644
GATCCTGA	-0.0903
CAGCATCC	-0.306
GCCGGGAA	0.00635
AAACGACG	0.238
AACCTAGG	-0.0738
ACACGTAA	0.0183
TGCCTTAA	-0.0923
CTACTACC	-0.00884

Reference: the supplement of paper PMC3334620
